Earlier results in US20040151679A1, “Dissolving agent for melanin” (priority 2001, published 2004).
At least one compound was matched to its structure with a doubt left.

Conditions: cited from earlier work

## FC(F)(Br)C(F)(F)Br [1,2-dibromtetrafluoroethane]
  Toxicity (maximum allowed concentration in the air in the working area): 1000 mg/m^3
